These are yes or no findings as the source states them, for the method shown. In cells and extracts the contact can be indirect. Some entries that bind do so weakly or less than the wild type.
T1: Immunoglobulin superfamily member 9b (mouse (endogenous in mouse brain)) (UniProt E9PZ19)
T1 sequence: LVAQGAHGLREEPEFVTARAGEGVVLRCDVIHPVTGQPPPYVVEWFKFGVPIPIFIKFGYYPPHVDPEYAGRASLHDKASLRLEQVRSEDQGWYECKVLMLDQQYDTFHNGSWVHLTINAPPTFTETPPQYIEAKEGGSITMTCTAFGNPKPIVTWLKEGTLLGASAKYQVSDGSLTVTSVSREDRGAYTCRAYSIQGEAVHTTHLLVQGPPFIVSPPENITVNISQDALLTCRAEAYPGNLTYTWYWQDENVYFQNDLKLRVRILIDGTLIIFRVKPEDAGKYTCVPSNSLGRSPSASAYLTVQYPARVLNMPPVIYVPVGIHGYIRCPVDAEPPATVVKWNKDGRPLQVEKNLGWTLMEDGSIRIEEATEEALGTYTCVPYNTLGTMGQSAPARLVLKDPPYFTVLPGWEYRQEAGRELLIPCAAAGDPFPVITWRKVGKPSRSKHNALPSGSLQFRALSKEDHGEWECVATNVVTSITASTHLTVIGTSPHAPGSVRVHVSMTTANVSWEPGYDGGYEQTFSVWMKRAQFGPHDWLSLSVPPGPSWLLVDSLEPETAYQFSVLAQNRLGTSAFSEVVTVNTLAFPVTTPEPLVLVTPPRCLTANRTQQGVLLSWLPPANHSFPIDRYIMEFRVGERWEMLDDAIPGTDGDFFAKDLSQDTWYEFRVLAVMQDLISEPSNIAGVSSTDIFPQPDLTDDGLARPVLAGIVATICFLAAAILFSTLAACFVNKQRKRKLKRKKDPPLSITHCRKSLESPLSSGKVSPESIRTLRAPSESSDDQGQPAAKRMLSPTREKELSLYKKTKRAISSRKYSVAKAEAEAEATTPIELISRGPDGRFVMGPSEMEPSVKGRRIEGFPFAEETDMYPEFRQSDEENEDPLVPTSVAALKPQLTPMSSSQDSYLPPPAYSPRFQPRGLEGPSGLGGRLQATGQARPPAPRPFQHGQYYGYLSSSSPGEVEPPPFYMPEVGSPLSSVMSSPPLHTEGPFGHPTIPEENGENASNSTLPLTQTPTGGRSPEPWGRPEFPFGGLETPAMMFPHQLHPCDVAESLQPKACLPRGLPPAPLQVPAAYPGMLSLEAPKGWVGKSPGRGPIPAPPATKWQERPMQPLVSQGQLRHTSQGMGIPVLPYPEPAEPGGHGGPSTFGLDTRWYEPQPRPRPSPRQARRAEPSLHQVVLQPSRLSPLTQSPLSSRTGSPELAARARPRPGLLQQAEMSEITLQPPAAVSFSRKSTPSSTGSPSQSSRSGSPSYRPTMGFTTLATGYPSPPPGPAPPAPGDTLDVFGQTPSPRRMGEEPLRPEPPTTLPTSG

The chains behind the UniProt entries cited, without tags or fusion partners. Residues count along the entry.
UniProt Q69ZK9, residues 15-836: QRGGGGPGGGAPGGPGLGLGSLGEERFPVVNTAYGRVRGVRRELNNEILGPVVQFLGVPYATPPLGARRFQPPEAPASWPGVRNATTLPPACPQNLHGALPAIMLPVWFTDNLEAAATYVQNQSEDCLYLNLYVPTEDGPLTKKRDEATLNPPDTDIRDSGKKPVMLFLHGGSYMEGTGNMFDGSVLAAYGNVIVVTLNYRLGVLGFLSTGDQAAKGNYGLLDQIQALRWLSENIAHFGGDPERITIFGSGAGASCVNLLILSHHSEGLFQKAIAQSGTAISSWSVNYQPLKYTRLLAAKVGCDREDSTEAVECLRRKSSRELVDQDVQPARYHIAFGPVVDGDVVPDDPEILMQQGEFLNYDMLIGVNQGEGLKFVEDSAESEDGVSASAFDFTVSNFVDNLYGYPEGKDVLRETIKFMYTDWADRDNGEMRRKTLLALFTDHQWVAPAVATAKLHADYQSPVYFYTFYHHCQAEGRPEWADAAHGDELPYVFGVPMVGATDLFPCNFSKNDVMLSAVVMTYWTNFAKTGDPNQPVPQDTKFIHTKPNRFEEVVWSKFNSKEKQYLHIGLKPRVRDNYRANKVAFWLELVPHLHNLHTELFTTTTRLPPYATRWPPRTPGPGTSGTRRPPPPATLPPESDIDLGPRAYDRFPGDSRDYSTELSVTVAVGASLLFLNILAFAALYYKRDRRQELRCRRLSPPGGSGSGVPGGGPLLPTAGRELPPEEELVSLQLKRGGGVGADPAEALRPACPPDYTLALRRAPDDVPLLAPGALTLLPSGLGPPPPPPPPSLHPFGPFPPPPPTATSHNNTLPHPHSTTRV

T2: Prickle2 (mouse (endogenous in mouse brain)) (UniProt Q80Y24)
T2 sequence: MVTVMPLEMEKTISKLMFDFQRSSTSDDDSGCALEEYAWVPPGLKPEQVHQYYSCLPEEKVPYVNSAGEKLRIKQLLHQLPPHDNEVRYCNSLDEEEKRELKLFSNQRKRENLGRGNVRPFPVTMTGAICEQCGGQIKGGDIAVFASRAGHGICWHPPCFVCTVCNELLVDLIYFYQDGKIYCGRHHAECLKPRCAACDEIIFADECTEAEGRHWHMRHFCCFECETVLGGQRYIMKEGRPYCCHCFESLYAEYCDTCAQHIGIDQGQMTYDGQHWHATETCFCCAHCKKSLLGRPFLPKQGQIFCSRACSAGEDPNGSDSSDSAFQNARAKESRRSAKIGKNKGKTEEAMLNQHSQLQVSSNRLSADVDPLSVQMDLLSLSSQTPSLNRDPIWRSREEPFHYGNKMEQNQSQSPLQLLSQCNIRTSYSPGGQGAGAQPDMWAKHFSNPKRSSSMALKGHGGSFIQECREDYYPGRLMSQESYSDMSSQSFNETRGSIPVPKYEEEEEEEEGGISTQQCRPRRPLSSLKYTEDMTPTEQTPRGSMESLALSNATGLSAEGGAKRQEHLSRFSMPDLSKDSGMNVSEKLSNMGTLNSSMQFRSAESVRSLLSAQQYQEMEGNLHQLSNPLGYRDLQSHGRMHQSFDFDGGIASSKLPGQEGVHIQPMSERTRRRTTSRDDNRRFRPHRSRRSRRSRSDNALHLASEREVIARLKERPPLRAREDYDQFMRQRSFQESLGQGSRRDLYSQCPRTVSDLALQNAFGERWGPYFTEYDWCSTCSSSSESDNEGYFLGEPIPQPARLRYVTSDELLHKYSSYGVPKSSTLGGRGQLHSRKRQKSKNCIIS


Assays:
[1] = molecular target: T1, Immunoglobulin superfamily member 9b (mouse (endogenous in mouse brain)); experiment: co-IP; whole mouse brain lysate in RIPA buffer; immunoprecipitation with anti-Prickle2 or anti-Igsf9b antibody, immunoblotting with specific antibodies
[2] = molecular target: T2, Prickle2 (mouse (endogenous in mouse brain)); experiment: as above

binding [1]	binding [2]	Molecule
binds	–	Neuroligin-2 (from UniProt Q69ZK9 15-836)
binds	–	Prickle2 (protein, UniProt Q80Y24 1-845) MVTVMPLEMEKTISKLMFDFQRSSTSDDDSGCALEEYAWVPPGLKPEQVHQYYSCLPEEKVPYVNSAGEKLRIKQLLHQLPPHDNEVRYCNSLDEEEKRELKLFSNQRKRENLGRGNVRPFPVTMTGAICEQCGGQIKGGDIAVFASRAGHGICWHPPCFVCTVCNELLVDLIYFYQDGKIYCGRHHAECLKPRCAACDEIIFADECTEAEGRHWHMRHFCCFECETVLGGQRYIMKEGRPYCCHCFESLYAEYCDTCAQHIGIDQGQMTYDGQHWHATETCFCCAHCKKSLLGRPFLPKQGQIFCSRACSAGEDPNGSDSSDSAFQNARAKESRRSAKIGKNKGKTEEAMLNQHSQLQVSSNRLSADVDPLSVQMDLLSLSSQTPSLNRDPIWRSREEPFHYGNKMEQNQSQSPLQLLSQCNIRTSYSPGGQGAGAQPDMWAKHFSNPKRSSSMALKGHGGSFIQECREDYYPGRLMSQESYSDMSSQSFNETRGSIPVPKYEEEEEEEEGGISTQQCRPRRPLSSLKYTEDMTPTEQTPRGSMESLALSNATGLSAEGGAKRQEHLSRFSMPDLSKDSGMNVSEKLSNMGTLNSSMQFRSAESVRSLLSAQQYQEMEGNLHQLSNPLGYRDLQSHGRMHQSFDFDGGIASSKLPGQEGVHIQPMSERTRRRTTSRDDNRRFRPHRSRRSRRSRSDNALHLASEREVIARLKERPPLRAREDYDQFMRQRSFQESLGQGSRRDLYSQCPRTVSDLALQNAFGERWGPYFTEYDWCSTCSSSSESDNEGYFLGEPIPQPARLRYVTSDELLHKYSSYGVPKSSTLGGRGQLHSRKRQKSKNCIIS
–	binds	Immunoglobulin superfamily member 9b (protein, UniProt E9PZ19 18-1328) LVAQGAHGLREEPEFVTARAGEGVVLRCDVIHPVTGQPPPYVVEWFKFGVPIPIFIKFGYYPPHVDPEYAGRASLHDKASLRLEQVRSEDQGWYECKVLMLDQQYDTFHNGSWVHLTINAPPTFTETPPQYIEAKEGGSITMTCTAFGNPKPIVTWLKEGTLLGASAKYQVSDGSLTVTSVSREDRGAYTCRAYSIQGEAVHTTHLLVQGPPFIVSPPENITVNISQDALLTCRAEAYPGNLTYTWYWQDENVYFQNDLKLRVRILIDGTLIIFRVKPEDAGKYTCVPSNSLGRSPSASAYLTVQYPARVLNMPPVIYVPVGIHGYIRCPVDAEPPATVVKWNKDGRPLQVEKNLGWTLMEDGSIRIEEATEEALGTYTCVPYNTLGTMGQSAPARLVLKDPPYFTVLPGWEYRQEAGRELLIPCAAAGDPFPVITWRKVGKPSRSKHNALPSGSLQFRALSKEDHGEWECVATNVVTSITASTHLTVIGTSPHAPGSVRVHVSMTTANVSWEPGYDGGYEQTFSVWMKRAQFGPHDWLSLSVPPGPSWLLVDSLEPETAYQFSVLAQNRLGTSAFSEVVTVNTLAFPVTTPEPLVLVTPPRCLTANRTQQGVLLSWLPPANHSFPIDRYIMEFRVGERWEMLDDAIPGTDGDFFAKDLSQDTWYEFRVLAVMQDLISEPSNIAGVSSTDIFPQPDLTDDGLARPVLAGIVATICFLAAAILFSTLAACFVNKQRKRKLKRKKDPPLSITHCRKSLESPLSSGKVSPESIRTLRAPSESSDDQGQPAAKRMLSPTREKELSLYKKTKRAISSRKYSVAKAEAEAEATTPIELISRGPDGRFVMGPSEMEPSVKGRRIEGFPFAEETDMYPEFRQSDEENEDPLVPTSVAALKPQLTPMSSSQDSYLPPPAYSPRFQPRGLEGPSGLGGRLQATGQARPPAPRPFQHGQYYGYLSSSSPGEVEPPPFYMPEVGSPLSSVMSSPPLHTEGPFGHPTIPEENGENASNSTLPLTQTPTGGRSPEPWGRPEFPFGGLETPAMMFPHQLHPCDVAESLQPKACLPRGLPPAPLQVPAAYPGMLSLEAPKGWVGKSPGRGPIPAPPATKWQERPMQPLVSQGQLRHTSQGMGIPVLPYPEPAEPGGHGGPSTFGLDTRWYEPQPRPRPSPRQARRAEPSLHQVVLQPSRLSPLTQSPLSSRTGSPELAARARPRPGLLQQAEMSEITLQPPAAVSFSRKSTPSSTGSPSQSSRSGSPSYRPTMGFTTLATGYPSPPPGPAPPAPGDTLDVFGQTPSPRRMGEEPLRPEPPTTLPTSG

— article PMC10511046
